Assay results reported in paper doi:10.1101/2021.09.15.460490.
No constants are given. Whether binding was seen depends on the method and setting. Binding seen in cells or lysates may run through a third protein. Some binding calls cover weakened binding; strength is not graded here. For some assays here: Sequences can lack the tags named with a protein.

Amino acid sequences for entries named in this document (tags omitted). A change or cut given only in a name is not applied to a line headed by its entry.
UniProt Q13153: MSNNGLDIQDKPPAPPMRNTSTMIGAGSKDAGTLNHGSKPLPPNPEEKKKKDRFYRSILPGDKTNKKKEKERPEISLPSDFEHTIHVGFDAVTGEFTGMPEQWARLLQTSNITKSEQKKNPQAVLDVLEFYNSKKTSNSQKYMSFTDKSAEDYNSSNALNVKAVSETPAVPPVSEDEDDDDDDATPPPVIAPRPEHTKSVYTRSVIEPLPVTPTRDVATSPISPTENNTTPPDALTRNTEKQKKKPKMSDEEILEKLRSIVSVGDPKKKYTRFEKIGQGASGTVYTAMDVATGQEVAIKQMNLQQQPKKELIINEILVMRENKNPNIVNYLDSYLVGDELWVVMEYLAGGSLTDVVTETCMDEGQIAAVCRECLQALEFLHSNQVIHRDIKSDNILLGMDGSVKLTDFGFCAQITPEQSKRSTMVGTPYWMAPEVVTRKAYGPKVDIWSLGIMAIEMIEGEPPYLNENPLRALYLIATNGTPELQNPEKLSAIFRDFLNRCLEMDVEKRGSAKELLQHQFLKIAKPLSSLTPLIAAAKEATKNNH
UniProt O75116: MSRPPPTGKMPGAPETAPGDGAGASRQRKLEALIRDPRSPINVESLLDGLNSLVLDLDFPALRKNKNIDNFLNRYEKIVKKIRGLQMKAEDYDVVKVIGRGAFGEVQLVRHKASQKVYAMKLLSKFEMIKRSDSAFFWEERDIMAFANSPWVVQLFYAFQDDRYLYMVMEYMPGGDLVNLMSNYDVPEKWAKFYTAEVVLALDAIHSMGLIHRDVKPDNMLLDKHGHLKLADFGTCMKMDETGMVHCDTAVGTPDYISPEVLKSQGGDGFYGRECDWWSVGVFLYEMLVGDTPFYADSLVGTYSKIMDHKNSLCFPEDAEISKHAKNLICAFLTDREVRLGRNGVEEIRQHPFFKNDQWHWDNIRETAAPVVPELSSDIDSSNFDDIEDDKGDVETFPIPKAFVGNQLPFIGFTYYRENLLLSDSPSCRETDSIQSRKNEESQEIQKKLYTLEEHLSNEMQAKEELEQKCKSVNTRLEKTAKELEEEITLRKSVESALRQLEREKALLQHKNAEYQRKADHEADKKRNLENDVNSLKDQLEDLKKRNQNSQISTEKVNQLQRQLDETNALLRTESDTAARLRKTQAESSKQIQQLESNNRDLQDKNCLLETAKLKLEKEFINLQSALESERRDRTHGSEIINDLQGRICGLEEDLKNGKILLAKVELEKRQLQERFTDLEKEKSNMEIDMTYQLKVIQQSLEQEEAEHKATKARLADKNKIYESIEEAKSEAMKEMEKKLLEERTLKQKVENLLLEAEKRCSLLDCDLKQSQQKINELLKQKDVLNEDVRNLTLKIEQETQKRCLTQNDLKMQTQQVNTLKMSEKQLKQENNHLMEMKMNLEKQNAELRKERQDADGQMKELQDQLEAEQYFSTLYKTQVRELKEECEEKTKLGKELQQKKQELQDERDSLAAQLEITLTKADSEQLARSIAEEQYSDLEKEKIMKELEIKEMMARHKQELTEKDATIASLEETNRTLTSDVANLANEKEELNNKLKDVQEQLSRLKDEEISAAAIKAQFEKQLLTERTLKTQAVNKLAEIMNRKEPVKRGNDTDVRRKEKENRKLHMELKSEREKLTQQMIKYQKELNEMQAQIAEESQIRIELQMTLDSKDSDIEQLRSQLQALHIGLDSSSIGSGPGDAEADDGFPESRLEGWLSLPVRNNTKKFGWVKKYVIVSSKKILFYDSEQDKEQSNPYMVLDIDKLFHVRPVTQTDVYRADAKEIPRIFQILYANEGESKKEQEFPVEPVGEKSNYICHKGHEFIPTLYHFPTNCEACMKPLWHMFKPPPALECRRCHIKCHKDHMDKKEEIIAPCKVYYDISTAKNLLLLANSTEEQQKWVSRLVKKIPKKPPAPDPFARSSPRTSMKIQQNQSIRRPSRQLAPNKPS
UniProt P61586: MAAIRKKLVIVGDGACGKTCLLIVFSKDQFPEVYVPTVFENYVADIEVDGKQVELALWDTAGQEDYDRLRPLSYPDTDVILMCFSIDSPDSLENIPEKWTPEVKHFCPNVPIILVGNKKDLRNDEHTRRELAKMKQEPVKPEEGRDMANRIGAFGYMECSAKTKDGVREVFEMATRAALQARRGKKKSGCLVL
UniProt Q13464: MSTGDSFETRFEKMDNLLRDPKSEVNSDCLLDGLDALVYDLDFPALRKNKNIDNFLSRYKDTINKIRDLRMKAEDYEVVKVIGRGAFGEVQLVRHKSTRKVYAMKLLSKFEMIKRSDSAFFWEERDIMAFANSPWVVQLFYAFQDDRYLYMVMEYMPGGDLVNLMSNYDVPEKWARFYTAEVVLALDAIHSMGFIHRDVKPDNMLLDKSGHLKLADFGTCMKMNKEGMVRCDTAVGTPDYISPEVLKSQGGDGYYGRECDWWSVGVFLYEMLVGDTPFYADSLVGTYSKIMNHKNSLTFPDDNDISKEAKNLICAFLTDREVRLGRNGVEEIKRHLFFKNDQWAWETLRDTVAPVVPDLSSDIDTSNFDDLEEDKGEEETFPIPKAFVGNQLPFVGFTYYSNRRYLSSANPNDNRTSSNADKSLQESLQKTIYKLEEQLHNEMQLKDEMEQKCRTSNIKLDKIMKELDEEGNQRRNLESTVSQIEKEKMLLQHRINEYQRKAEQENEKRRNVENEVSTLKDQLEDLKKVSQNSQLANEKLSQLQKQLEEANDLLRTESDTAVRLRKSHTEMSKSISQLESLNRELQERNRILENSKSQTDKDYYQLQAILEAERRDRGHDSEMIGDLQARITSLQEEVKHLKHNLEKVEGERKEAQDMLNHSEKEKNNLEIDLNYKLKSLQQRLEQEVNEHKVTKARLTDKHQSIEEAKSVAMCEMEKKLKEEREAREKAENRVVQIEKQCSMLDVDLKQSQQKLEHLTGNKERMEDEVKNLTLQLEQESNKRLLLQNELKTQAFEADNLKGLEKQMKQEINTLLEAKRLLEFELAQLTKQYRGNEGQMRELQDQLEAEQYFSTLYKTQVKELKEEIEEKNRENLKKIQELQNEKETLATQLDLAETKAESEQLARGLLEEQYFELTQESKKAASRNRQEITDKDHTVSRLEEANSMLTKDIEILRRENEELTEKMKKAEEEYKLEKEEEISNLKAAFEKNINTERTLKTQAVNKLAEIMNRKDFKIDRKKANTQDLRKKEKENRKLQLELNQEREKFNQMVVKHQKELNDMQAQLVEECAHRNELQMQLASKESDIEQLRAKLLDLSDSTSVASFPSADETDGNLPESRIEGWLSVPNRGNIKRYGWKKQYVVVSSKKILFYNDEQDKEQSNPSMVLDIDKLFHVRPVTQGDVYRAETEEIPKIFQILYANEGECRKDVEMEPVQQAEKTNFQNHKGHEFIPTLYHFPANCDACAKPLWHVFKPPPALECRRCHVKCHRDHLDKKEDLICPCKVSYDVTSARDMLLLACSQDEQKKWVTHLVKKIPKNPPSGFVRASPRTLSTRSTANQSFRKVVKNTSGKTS
UniProt Q5VT25: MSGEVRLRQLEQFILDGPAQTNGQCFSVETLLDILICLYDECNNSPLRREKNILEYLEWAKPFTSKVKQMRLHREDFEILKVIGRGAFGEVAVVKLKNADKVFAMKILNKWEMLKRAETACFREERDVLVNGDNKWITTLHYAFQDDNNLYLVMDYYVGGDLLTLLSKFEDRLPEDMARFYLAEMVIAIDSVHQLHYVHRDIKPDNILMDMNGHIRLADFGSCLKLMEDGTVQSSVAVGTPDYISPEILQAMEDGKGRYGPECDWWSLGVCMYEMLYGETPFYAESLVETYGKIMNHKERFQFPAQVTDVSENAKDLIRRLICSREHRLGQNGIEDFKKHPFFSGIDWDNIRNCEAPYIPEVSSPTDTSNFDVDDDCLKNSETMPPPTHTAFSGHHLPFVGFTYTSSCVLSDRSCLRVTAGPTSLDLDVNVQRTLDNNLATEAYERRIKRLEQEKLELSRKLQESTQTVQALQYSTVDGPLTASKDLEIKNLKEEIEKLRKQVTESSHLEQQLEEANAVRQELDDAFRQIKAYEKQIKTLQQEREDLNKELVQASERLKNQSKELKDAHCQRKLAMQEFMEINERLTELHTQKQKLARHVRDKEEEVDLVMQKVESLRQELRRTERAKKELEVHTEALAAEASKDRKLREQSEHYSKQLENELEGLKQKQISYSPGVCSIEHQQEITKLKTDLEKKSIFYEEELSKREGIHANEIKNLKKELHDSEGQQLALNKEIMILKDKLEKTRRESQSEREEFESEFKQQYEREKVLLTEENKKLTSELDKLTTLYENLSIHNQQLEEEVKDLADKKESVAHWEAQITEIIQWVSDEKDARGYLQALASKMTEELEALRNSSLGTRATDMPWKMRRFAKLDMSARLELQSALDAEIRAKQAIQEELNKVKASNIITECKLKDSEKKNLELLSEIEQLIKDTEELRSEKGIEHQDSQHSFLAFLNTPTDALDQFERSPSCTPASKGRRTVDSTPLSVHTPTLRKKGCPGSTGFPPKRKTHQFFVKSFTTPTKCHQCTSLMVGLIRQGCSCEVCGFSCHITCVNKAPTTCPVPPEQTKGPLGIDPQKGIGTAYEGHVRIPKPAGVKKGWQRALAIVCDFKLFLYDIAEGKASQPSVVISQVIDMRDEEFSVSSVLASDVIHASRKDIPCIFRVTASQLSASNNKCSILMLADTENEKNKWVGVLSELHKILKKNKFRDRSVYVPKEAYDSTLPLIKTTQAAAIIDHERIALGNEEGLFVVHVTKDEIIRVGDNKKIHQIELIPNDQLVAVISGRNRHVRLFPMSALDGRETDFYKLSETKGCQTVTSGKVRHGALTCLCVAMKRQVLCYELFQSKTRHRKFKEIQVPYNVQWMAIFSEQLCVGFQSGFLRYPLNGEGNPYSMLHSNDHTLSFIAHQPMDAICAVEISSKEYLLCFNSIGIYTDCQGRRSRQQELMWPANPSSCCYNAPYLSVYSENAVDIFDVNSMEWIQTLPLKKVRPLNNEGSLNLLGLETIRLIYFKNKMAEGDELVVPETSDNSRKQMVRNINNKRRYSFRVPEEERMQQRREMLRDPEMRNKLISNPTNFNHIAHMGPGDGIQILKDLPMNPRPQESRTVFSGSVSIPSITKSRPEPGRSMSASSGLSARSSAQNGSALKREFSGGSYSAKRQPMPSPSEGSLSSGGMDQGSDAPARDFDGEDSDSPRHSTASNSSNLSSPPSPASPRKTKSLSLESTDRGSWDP
UniProt P61026: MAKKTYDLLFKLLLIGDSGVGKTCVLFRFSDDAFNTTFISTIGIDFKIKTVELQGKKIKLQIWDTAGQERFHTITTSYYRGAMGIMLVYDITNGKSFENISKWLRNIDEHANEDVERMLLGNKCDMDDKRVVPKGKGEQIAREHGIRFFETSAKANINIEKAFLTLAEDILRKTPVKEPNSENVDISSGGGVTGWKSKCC

Columns and labels:
Test in all cases: co-IP
[1] = target: T1, FLAG-MICAL1 (human) (UniProt Q8TDZ2)
T1 sequence: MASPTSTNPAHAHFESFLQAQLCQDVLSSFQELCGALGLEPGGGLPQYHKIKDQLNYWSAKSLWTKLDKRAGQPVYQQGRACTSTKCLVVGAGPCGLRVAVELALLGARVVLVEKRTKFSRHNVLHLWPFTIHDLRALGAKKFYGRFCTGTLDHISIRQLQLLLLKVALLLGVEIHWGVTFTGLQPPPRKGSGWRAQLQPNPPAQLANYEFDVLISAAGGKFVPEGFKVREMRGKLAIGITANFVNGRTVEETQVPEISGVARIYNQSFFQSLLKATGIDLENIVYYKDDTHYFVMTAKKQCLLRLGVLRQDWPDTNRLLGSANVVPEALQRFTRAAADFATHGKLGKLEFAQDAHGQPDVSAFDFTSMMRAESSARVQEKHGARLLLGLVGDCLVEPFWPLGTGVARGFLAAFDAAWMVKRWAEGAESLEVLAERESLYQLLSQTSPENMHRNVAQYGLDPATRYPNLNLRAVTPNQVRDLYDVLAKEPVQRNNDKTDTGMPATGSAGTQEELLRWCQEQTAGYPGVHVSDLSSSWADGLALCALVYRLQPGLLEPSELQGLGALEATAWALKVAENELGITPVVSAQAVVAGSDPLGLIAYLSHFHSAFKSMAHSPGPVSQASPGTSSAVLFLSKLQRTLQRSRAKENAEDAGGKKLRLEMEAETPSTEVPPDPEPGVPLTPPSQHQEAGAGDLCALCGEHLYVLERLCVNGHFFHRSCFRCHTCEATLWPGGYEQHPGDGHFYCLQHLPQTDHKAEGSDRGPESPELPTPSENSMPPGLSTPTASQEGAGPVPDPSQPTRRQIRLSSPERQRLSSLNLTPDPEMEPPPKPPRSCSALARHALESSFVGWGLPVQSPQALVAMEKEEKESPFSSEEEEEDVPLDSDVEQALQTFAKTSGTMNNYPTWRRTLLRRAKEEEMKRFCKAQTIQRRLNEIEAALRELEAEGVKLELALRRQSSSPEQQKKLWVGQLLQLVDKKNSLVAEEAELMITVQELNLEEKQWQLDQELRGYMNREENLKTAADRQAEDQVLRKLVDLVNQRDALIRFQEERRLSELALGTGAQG

[2] = target: myc-PAK1 (UniProt Q13153)
[3] = target: myc-tagged ROCK2 (UniProt O75116)
[4] = target: myc-tagged constitutively-active RHOA Q63L (UniProt P61586)
[5] = target: myc-tagged ROCK1 (UniProt Q13464)
[6] = target: myc-tagged MRCKβ (UniProt Q9Y5S2)
[7] = target: myc-tagged MRCKα (UniProt Q5VT25)

## eGFP-RAB10 (from UniProt P61026 1-200)
[1]
  binding: binds

## FLAG-MICAL1 C1 (830-1067 amino acids) (from UniProt Q8TDZ2 830-1067) (domain or fragment)
[2]
  binding: no binding

## FLAG-MICAL1 C2 (676-1067 amino acids) (from UniProt Q8TDZ2 676-1067) (domain or fragment)
[2]
  binding: no binding

B1: FLAG-MICAL1 (enzyme, UniProt Q8TDZ2 1-1067)
chain: T1 sequence
[3]
  binding: no binding
[4]
  binding: no binding
[5]
  binding: no binding
[6]
  binding: no binding
[7]
  binding: no binding
